Assay results as given in PMC11006759.
Results are given in words; binding and its absence hold for the method and conditions named. In cells and extracts the contact can be indirect. A yes stands for co-enrichment or nearness to the bait. Other partners may have been found.

Chains of the proteins cited; added tags and fusions are not shown.
UniProt Q9H0J4: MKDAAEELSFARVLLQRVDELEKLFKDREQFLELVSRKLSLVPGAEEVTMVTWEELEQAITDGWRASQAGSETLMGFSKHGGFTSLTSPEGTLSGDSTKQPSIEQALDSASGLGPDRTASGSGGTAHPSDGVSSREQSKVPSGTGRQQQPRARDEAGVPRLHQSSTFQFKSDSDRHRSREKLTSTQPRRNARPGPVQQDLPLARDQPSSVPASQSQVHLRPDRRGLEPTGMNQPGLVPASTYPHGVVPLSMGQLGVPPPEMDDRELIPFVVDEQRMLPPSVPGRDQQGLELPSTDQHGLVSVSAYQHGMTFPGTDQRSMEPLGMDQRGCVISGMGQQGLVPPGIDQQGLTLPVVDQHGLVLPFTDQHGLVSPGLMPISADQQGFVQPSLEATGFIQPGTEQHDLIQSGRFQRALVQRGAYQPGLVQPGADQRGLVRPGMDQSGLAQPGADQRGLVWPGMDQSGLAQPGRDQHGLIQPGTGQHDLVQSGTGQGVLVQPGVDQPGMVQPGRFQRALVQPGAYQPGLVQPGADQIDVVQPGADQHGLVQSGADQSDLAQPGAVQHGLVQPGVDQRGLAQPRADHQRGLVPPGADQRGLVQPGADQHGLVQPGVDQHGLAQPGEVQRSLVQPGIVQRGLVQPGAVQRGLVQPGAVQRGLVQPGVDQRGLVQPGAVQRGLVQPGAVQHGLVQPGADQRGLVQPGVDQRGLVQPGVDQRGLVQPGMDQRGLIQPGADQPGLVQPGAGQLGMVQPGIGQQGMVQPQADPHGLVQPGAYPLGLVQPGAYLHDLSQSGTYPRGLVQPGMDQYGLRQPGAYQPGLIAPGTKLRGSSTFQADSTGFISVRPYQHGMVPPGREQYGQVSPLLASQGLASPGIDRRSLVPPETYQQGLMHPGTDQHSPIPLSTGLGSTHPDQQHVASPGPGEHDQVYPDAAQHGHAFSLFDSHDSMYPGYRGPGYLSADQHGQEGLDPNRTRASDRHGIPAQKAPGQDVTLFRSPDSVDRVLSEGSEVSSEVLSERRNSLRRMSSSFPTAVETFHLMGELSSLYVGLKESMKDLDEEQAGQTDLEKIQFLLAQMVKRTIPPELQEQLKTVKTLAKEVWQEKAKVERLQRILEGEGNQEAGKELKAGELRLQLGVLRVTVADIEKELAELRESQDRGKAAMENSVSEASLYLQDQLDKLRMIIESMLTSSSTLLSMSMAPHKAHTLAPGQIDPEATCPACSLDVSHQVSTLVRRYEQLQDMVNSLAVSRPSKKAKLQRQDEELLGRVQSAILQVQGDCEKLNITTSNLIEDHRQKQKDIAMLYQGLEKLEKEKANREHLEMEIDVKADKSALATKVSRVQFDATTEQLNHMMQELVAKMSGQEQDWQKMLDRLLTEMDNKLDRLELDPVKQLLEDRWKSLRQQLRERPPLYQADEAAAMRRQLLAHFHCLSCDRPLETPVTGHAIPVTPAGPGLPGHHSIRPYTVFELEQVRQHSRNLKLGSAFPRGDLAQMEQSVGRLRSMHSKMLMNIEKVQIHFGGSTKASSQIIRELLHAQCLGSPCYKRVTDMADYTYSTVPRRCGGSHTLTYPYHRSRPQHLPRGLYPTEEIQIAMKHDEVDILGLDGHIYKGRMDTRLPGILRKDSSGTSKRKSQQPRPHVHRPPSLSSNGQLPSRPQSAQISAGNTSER
UniProt Q9BQE3: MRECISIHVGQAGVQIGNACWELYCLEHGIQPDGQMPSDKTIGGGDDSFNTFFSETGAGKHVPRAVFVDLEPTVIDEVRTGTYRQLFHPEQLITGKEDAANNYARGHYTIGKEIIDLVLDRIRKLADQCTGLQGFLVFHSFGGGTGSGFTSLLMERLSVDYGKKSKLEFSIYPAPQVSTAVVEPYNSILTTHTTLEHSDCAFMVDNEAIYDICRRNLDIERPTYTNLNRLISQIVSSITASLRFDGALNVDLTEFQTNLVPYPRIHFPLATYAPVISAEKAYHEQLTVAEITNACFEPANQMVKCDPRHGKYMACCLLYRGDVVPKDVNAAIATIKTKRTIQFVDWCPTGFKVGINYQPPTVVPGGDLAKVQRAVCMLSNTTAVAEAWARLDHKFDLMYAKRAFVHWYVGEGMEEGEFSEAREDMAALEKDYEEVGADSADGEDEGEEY
UniProt P68371: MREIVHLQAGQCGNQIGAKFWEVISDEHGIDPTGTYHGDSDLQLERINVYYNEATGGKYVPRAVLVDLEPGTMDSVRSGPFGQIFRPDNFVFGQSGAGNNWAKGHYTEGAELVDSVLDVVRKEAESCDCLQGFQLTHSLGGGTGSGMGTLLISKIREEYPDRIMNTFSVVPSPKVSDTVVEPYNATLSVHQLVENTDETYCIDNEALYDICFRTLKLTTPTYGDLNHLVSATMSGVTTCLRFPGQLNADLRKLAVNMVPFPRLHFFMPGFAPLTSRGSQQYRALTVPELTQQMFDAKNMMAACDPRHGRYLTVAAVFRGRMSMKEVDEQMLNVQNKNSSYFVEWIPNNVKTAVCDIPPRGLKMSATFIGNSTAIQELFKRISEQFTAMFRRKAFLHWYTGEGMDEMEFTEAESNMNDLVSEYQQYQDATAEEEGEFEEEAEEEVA
UniProt P07437: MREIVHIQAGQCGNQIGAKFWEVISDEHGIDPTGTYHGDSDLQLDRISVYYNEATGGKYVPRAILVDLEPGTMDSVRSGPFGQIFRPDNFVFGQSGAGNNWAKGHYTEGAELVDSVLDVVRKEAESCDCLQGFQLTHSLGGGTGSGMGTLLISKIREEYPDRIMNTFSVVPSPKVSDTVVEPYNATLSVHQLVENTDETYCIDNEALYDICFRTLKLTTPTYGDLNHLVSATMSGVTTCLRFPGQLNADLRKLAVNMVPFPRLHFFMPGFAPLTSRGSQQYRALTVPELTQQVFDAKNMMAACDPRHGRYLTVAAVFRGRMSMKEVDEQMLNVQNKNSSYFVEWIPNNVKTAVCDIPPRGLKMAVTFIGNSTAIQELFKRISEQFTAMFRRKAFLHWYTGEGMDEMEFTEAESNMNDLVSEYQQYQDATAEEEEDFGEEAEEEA

biological target: QRICH2 (bait of the IP-Mass spectrometry) (UniProt Q9H0J4); experiment: affinity purification with mass spectrometry; IP-Mass spectrometry of QRICH2; told only in the discussion, no methods given

binding, binds:
TUBA1C (from UniProt Q9BQE3 1-449)
TUBB4B (from UniProt P68371 1-445)
TUBB (from UniProt P07437 1-444)
